Measured values as given in the supplement of paper PMC4635364.
Where a name gives a salt, the structure may show the parent alone. The list shows a part of the results. Single values are uncertain here, since repeats match poorly.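 ReNCell VM, a human fetal ventral-midbrain neural progenitor line, was differentiated without mitogens. Blinded raters scored images stained for doublecortin (early neurons) or tyrosine hydroxylase (dopaminergic neurons) against untreated wells (0 = no change). Scores were averaged across repeats and both raters, and compounds averaging 2 or more were selected as hits for retesting.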

Assays:
ReNCell VM [1] = test: neuronal differentiation score (DCX+ cell fraction vs untreated, manual image score) (score (-3 to 3)); higher = more neuronal differentiation; details: 2 uM, 2 weeks
ReNCell VM [2] = test: dopaminergic neuron differentiation score (TH+ cell fraction vs untreated, manual image score) (score (0 to 3)); higher = more TH+ dopaminergic neuron differentiation; details: 2 uM, 4 weeks, BDNF 10 ng/ml + GDNF 10 ng/ml

CC(C[N+](C)(C)C)OC(N)=O (configuration not stated) [Bethanechol chloride]
inactive: neuronal differentiation score (ReNCell VM [1]; library: LOPAC) 0 | neuronal differentiation score (ReNCell VM [1]; library: Prestwick) 0 | dopaminergic neuron differentiation score (ReNCell VM [2]; library: LOPAC) 0 | dopaminergic neuron differentiation score (ReNCell VM [2]; library: Prestwick) 0

NC(N)=Nc1nc(CSCC/C(N)=N/S(N)(=O)=O)cs1 [Famotidine]
inactive: neuronal differentiation score (ReNCell VM [1]; library: LOPAC) 0 | neuronal differentiation score (ReNCell VM [1]; library: Prestwick) 0 | dopaminergic neuron differentiation score (ReNCell VM [2]; library: LOPAC) 0 | dopaminergic neuron differentiation score (ReNCell VM [2]; library: Prestwick) 0

CCOC(=O)C(C)(C)Oc1ccc(Cl)cc1 [Clofibrate]
inactive: neuronal differentiation score (ReNCell VM [1]; library: LOPAC) 0 | neuronal differentiation score (ReNCell VM [1]; library: Prestwick) 0 | dopaminergic neuron differentiation score (ReNCell VM [2]; library: LOPAC) 0 | dopaminergic neuron differentiation score (ReNCell VM [2]; library: Prestwick) 0

Already shown: 2 of the compounds above.
CC(C[N+](C)(C)C)OC(N)=O (configuration not stated) [Bethanechol chloride]
inactive: neuronal differentiation score (ReNCell VM [1]; library: LOPAC) 0 | neuronal differentiation score (ReNCell VM [1]; library: Prestwick) 0 | dopaminergic neuron differentiation score (ReNCell VM [2]; library: LOPAC) 0 | dopaminergic neuron differentiation score (ReNCell VM [2]; library: Prestwick) 0

NC(N)=Nc1nc(CSCC/C(N)=N/S(N)(=O)=O)cs1 [Famotidine]
inactive: neuronal differentiation score (ReNCell VM [1]; library: LOPAC) 0 | neuronal differentiation score (ReNCell VM [1]; library: Prestwick) 0 | dopaminergic neuron differentiation score (ReNCell VM [2]; library: LOPAC) 0 | dopaminergic neuron differentiation score (ReNCell VM [2]; library: Prestwick) 0

Additional structures

Nc1ncnc2c1ncn2C1CCCO1 (configuration not stated)
inactive: neuronal differentiation score (ReNCell VM [1]; library: LOPAC) 0 | neuronal differentiation score (ReNCell VM [1]; library: Tocriscreen) 0 | dopaminergic neuron differentiation score (ReNCell VM [2]; library: LOPAC) 0 | dopaminergic neuron differentiation score (ReNCell VM [2]; library: Tocriscreen) 0

Cc1cccc(C)c1OCC(C)N (configuration not stated) [Mexiletine hydrochloride]
inactive: neuronal differentiation score (ReNCell VM [1]; library: Prestwick) 0 | neuronal differentiation score (ReNCell VM [1]; library: Tocriscreen) 0 | dopaminergic neuron differentiation score (ReNCell VM [2]; library: Prestwick) 0 | dopaminergic neuron differentiation score (ReNCell VM [2]; library: Tocriscreen) 0

OC[C@H]1O[C@@H](Oc2ccc(O)cc2)[C@H](O)[C@@H](O)[C@@H]1O [Arbutin]
inactive: neuronal differentiation score (ReNCell VM [1]; library: Phytochemical) 0 | neuronal differentiation score (ReNCell VM [1]; library: Prestwick) 0 | dopaminergic neuron differentiation score (ReNCell VM [2]; library: Phytochemical) 0 | dopaminergic neuron differentiation score (ReNCell VM [2]; library: Prestwick) 0

O=C(OCCN1CCCCC1)c1c[nH]c2ccccc12
inactive: neuronal differentiation score (ReNCell VM [1]; library: LOPAC) -1 | neuronal differentiation score (ReNCell VM [1]; library: Tocriscreen) 0 | dopaminergic neuron differentiation score (ReNCell VM [2]; library: LOPAC) 0 | dopaminergic neuron differentiation score (ReNCell VM [2]; library: Tocriscreen) 0

CC(C)(CO)Cc1cc(C(C)(C)C)c(O)c(C(C)(C)C)c1
inactive: neuronal differentiation score (ReNCell VM [1]; library: LOPAC) -1 | neuronal differentiation score (ReNCell VM [1]; library: Tocriscreen) 0 | dopaminergic neuron differentiation score (ReNCell VM [2]; library: LOPAC) 0 | dopaminergic neuron differentiation score (ReNCell VM [2]; library: Tocriscreen) 0

c1ccc2c(c1)CCCC2C1=NCCN1 (configuration not stated) [Tetrahydrozoline hydrochloride]
inactive: neuronal differentiation score (ReNCell VM [1]; library: LOPAC) 0 | neuronal differentiation score (ReNCell VM [1]; library: Prestwick) 0 | dopaminergic neuron differentiation score (ReNCell VM [2]; library: LOPAC) 0 | dopaminergic neuron differentiation score (ReNCell VM [2]; library: Prestwick) 0

CN1Cc2c(N)cccc2C(c2ccccc2)C1 (configuration not stated) [Nomifensine maleate]
inactive: neuronal differentiation score (ReNCell VM [1]; library: LOPAC) 0 | neuronal differentiation score (ReNCell VM [1]; library: Prestwick) 0 | dopaminergic neuron differentiation score (ReNCell VM [2]; library: LOPAC) 0 | dopaminergic neuron differentiation score (ReNCell VM [2]; library: Prestwick) 0

CCCNC(C)C(=O)Nc1ccccc1C (configuration not stated) [Prilocaine hydrochloride]
inactive: neuronal differentiation score (ReNCell VM [1]; library: LOPAC) 0 | neuronal differentiation score (ReNCell VM [1]; library: Prestwick) 0 | dopaminergic neuron differentiation score (ReNCell VM [2]; library: LOPAC) 0 | dopaminergic neuron differentiation score (ReNCell VM [2]; library: Prestwick) 0

CN(C)c1ccc(/C=C2/C(=O)Nc3ccccc32)cc1
inactive: neuronal differentiation score (ReNCell VM [1]; library: LOPAC) 0 | neuronal differentiation score (ReNCell VM [1]; library: Tocriscreen) 0 | dopaminergic neuron differentiation score (ReNCell VM [2]; library: LOPAC) 1 | dopaminergic neuron differentiation score (ReNCell VM [2]; library: Tocriscreen) 0

COc1ccccc1N1CCN(CCCCN2C(=O)c3ccccc3C2=O)CC1 [NAN-190 hydrobromide]
inactive: neuronal differentiation score (ReNCell VM [1]; library: LOPAC) 0 | neuronal differentiation score (ReNCell VM [1]; library: Tocriscreen) 0 | dopaminergic neuron differentiation score (ReNCell VM [2]; library: LOPAC) 0 | dopaminergic neuron differentiation score (ReNCell VM [2]; library: Tocriscreen) 0

NNc1nncc2ccccc12 [Hydralazine hydrochloride]
inactive: neuronal differentiation score (ReNCell VM [1]; library: LOPAC) 0 | neuronal differentiation score (ReNCell VM [1]; library: Prestwick) 0 | dopaminergic neuron differentiation score (ReNCell VM [2]; library: LOPAC) 0 | dopaminergic neuron differentiation score (ReNCell VM [2]; library: Prestwick) 0

NCCCCNCCCN [Spermidine trihydrochloride]
inactive: neuronal differentiation score (ReNCell VM [1]; library: LOPAC) 0 | neuronal differentiation score (ReNCell VM [1]; library: Tocriscreen) 0 | dopaminergic neuron differentiation score (ReNCell VM [2]; library: LOPAC) 0 | dopaminergic neuron differentiation score (ReNCell VM [2]; library: Tocriscreen) 1

O=c1n(CCCN2CCN(c3cccc(Cl)c3)CC2)nc2ccccn12 [Trazodone hydrochloride]
inactive: neuronal differentiation score (ReNCell VM [1]; library: LOPAC) 0 | neuronal differentiation score (ReNCell VM [1]; library: Prestwick) 0 | dopaminergic neuron differentiation score (ReNCell VM [2]; library: LOPAC) 0 | dopaminergic neuron differentiation score (ReNCell VM [2]; library: Prestwick) 0

CC(C)(Sc1ccc(CCN(CCCCC2CCCCC2)C(=O)NC2CCCCC2)cc1)C(=O)O
inactive: neuronal differentiation score (ReNCell VM [1]; library: LOPAC) 0 | neuronal differentiation score (ReNCell VM [1]; library: Tocriscreen) 0 | dopaminergic neuron differentiation score (ReNCell VM [2]; library: LOPAC) 1 | dopaminergic neuron differentiation score (ReNCell VM [2]; library: Tocriscreen) 0

CCCCNc1c(C(=O)OCC)c(C)nc2c1cnn2CC [Tracazolate hydrochloride]
inactive: neuronal differentiation score (ReNCell VM [1]; library: Prestwick) 0 | neuronal differentiation score (ReNCell VM [1]; library: Tocriscreen) 0 | dopaminergic neuron differentiation score (ReNCell VM [2]; library: Prestwick) 1 | dopaminergic neuron differentiation score (ReNCell VM [2]; library: Tocriscreen) 0

O=c1cc(-c2ccc(O)c(O)c2)oc2cc(O)cc(O)c12 [Luteolin]
inactive: neuronal differentiation score (ReNCell VM [1]; library: Phytochemical) 0 | neuronal differentiation score (ReNCell VM [1]; library: Prestwick) 0 | dopaminergic neuron differentiation score (ReNCell VM [2]; library: Phytochemical) 0 | dopaminergic neuron differentiation score (ReNCell VM [2]; library: Prestwick) 0

COc1cc2c(cc1OC)-c1c/c(=N\c3c(C)cc(C)cc3C)n(C)c(=O)n1CC2 [Trequinsin hydrochloride]
inactive: neuronal differentiation score (ReNCell VM [1]; library: LOPAC) 0 | neuronal differentiation score (ReNCell VM [1]; library: Tocriscreen) 0 | dopaminergic neuron differentiation score (ReNCell VM [2]; library: LOPAC) 0 | dopaminergic neuron differentiation score (ReNCell VM [2]; library: Tocriscreen) 0

Nc1nc2ccc(Cl)cc2c2nc(-c3ccco3)nn12
inactive: neuronal differentiation score (ReNCell VM [1]; library: LOPAC) 1 | neuronal differentiation score (ReNCell VM [1]; library: Tocriscreen) 0 | dopaminergic neuron differentiation score (ReNCell VM [2]; library: LOPAC) 1 | dopaminergic neuron differentiation score (ReNCell VM [2]; library: Tocriscreen) 0

O=C(O)C1CCCN(CCC=C(c2ccccc2)c2ccccc2)C1 (configuration not stated)
inactive: neuronal differentiation score (ReNCell VM [1]; library: LOPAC) 0 | neuronal differentiation score (ReNCell VM [1]; library: Tocriscreen) 0 | dopaminergic neuron differentiation score (ReNCell VM [2]; library: LOPAC) 0 | dopaminergic neuron differentiation score (ReNCell VM [2]; library: Tocriscreen) 0

CCOC(=O)[C@]12CC1/C(=N\O)c1ccccc1O2 (some centres not stated)
inactive: neuronal differentiation score (ReNCell VM [1]; library: LOPAC) 0 | neuronal differentiation score (ReNCell VM [1]; library: Tocriscreen) 0 | dopaminergic neuron differentiation score (ReNCell VM [2]; library: LOPAC) 1 | dopaminergic neuron differentiation score (ReNCell VM [2]; library: Tocriscreen) 0

CN(C)CCCN1c2ccccc2Sc2ccc(C(F)(F)F)cc21 [Triflupromazine hydrochloride]
inactive: neuronal differentiation score (ReNCell VM [1]; library: LOPAC) 0 | neuronal differentiation score (ReNCell VM [1]; library: Prestwick) 0 | dopaminergic neuron differentiation score (ReNCell VM [2]; library: LOPAC) 0 | dopaminergic neuron differentiation score (ReNCell VM [2]; library: Prestwick) 0

NCCc1c[nH]cn1 [Histamine dihydrochloride]
inactive: neuronal differentiation score (ReNCell VM [1]; library: LOPAC) 0 | neuronal differentiation score (ReNCell VM [1]; library: Tocriscreen) 0 | dopaminergic neuron differentiation score (ReNCell VM [2]; library: LOPAC) 0 | dopaminergic neuron differentiation score (ReNCell VM [2]; library: Tocriscreen) 0

CCCN(CCC)C(=O)C(CCC(=O)O)NC(=O)c1ccccc1 (configuration not stated) [Proglumide]
inactive: neuronal differentiation score (ReNCell VM [1]; library: LOPAC) 0 | neuronal differentiation score (ReNCell VM [1]; library: Prestwick) 0 | dopaminergic neuron differentiation score (ReNCell VM [2]; library: LOPAC) 0 | dopaminergic neuron differentiation score (ReNCell VM [2]; library: Prestwick) 0

COC1(C2=NCCN2)COc2ccccc2O1 (configuration not stated)
inactive: neuronal differentiation score (ReNCell VM [1]; library: LOPAC) 0 | neuronal differentiation score (ReNCell VM [1]; library: Tocriscreen) 0 | dopaminergic neuron differentiation score (ReNCell VM [2]; library: LOPAC) 0 | dopaminergic neuron differentiation score (ReNCell VM [2]; library: Tocriscreen) 0

Cc1ccccc1N1CCN(S(=O)(=O)C[C@]23CC[C@H](C[C@@H]2NC(=O)[C@@H](N)CCS(C)(=O)=O)C3(C)C)CC1 [L-368,899 hydrochloride]
inactive: neuronal differentiation score (ReNCell VM [1]; library: LOPAC) 0 | neuronal differentiation score (ReNCell VM [1]; library: Tocriscreen) 0 | dopaminergic neuron differentiation score (ReNCell VM [2]; library: LOPAC) 0 | dopaminergic neuron differentiation score (ReNCell VM [2]; library: Tocriscreen) 0
